Laboratory results reported in paper PMC3984054 (Bioorganic & medicinal chemistry, 2013).

Assays:
[1] = test system: PrP^Sc in dividing ScN2a-cl3 cells; format: cell-based, mouse; conditions: read-out: EC50 ± SEM (antiprion activity by ELISA)
[2] = test system: dividing ScN2a-cl3 cells
[3] = in vitro; conditions: mouse

**Q.** Which results are given for `Clc1ccc2c(c1)CCc1cccnc1C2=C1CCNCC1` [Desloratidine, reference compound]?
**A.** EC50 [1]: 6.66 ± 0.56 µM; CC50 [2]: 9.56 µM

**Q.** Which EC50 [3] does the source give for `CC/C(=C(\c1ccccc1)c1ccc(OCCN(C)C)cc1)c1ccccc1` [Tamoxifen] here?
**A.** 4.3 to 9.6 µM
